# Reference: paper PMC9675736
# By UniProt entry, the sequences of proteins in these tests, tags left out.
# UniProt P62136: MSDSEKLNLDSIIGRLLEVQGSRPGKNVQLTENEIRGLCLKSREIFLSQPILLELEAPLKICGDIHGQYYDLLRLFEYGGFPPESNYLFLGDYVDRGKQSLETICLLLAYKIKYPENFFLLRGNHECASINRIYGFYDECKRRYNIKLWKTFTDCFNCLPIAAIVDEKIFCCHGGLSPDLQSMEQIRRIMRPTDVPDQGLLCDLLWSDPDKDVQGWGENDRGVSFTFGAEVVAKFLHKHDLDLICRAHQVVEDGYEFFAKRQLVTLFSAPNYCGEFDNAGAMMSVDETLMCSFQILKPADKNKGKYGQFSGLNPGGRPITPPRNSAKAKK
# UniProt P62137: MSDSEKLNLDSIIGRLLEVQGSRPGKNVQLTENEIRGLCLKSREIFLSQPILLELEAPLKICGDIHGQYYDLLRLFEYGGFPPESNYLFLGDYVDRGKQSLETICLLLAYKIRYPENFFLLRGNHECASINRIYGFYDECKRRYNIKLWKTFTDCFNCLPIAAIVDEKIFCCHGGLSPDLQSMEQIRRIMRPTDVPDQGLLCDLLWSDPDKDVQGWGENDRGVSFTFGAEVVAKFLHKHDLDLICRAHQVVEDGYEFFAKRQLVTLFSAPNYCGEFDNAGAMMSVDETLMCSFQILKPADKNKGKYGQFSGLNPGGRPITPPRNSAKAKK
# These are yes or no findings as the source states them, for the method shown. In cells and extracts the contact can be indirect. Some entries that bind do so weakly or less than the wild type.
# Tests used:
# [1] = target: T1, platelet endothelial aggregation receptor 1 (PEAR1), human (human (endogenous in cultured human pulmonary fibroblasts)) (UniProt Q5VY43); test: co-IP; lysates of cultured human or mouse pulmonary fibroblasts incubated overnight at 4 °C with anti-human PEAR1 mAbs LF2 and LF3, anti-mouse PEAR1 mAb LF1 or anti-PP1 antibody; mouse IgG as negative control; protein A/G agarose beads 3 h, washed 3 times with PBS; Western blot
# T1 sequence: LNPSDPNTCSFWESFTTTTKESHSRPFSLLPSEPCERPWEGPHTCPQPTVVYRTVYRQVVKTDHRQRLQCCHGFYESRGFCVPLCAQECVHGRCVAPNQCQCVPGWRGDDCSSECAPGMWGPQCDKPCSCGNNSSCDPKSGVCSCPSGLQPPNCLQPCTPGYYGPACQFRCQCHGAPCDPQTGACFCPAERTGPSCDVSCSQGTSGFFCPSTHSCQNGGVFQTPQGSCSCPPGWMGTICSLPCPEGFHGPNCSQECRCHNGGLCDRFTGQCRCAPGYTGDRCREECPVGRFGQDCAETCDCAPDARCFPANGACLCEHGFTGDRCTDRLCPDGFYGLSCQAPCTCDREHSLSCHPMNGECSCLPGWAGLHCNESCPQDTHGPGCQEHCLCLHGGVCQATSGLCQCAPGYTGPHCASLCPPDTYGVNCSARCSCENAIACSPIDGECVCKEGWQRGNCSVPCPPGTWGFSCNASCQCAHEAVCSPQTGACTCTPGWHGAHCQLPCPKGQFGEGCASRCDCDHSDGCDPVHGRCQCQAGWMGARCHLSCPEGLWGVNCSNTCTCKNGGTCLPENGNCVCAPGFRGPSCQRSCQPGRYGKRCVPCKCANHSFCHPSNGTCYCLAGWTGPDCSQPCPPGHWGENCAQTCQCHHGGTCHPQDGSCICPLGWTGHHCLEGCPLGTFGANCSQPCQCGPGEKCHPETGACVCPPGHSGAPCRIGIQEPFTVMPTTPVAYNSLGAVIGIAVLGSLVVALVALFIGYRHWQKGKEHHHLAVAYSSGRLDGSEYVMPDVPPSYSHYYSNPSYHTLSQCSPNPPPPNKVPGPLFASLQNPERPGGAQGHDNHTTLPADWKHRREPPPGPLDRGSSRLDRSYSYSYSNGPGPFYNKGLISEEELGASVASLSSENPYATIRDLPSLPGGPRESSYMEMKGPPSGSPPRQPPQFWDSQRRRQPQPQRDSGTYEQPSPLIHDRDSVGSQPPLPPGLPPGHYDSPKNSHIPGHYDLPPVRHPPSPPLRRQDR
# [2] = target: T2, platelet endothelial aggregation receptor 1 (PEAR1), mouse (mouse (endogenous in cultured mouse pulmonary fibroblasts)) (UniProt Q8VIK5); test: as above
# T2 sequence: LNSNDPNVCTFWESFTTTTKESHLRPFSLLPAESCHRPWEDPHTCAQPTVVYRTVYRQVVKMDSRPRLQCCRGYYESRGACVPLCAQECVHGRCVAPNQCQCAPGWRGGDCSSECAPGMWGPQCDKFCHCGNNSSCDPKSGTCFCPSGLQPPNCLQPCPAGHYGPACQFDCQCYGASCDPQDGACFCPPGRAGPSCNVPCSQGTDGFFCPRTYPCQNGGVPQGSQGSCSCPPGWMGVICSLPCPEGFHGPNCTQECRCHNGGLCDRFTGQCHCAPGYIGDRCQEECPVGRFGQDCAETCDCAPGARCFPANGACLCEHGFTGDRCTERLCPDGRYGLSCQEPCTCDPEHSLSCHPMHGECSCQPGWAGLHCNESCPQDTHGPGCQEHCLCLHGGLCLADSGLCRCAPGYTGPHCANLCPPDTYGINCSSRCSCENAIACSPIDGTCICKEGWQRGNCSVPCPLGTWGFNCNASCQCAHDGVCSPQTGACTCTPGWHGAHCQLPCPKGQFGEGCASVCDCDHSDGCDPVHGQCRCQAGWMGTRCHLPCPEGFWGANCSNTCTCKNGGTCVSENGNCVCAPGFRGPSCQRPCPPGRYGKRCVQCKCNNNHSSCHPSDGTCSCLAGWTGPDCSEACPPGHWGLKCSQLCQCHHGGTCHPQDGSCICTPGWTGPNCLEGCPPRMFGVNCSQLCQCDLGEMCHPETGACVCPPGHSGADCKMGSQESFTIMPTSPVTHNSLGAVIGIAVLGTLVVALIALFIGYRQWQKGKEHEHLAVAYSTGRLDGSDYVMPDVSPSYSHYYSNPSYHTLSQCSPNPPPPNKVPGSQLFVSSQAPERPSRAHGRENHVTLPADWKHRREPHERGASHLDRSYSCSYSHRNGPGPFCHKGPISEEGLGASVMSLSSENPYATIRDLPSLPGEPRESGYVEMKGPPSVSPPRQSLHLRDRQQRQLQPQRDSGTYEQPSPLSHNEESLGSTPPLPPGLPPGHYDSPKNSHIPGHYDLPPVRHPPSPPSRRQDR
binding [1],binding [2],Substance
binds,–,"protein phosphatase 1 catalytic subunit alpha (PP1α), human (from UniProt P62136 1-330) (enzyme)"
–,binds,"protein phosphatase 1 catalytic subunit alpha (PP1α), mouse (from UniProt P62137 1-330) (enzyme)"
